The supplement of paper PMC8728848
The list shows a part of the results.

Molecular target: Neu5Gc(b2-6)Gal(b1-4)GlcNAc
Test: glycan array binding signal (z-score within array); higher = stronger binding
Conditions: glycan notation: IUPAC condensed, linker removed
Outline: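 Glycan array binding is given as a within-array Z-score, which can be read as non-binding when negative. The arrays, 3228 of them, came from the Consortium for Functional Glycomics database and were retained only where the protein sequence was available. Z-scores were averaged across arrays of the same protein sequence at different concentrations or buffers and across linkers.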

B1: Lb MiSSP8 (Laccaria bicolor) (protein)
chain: MYFHTLFACATLMLITTAHASPTVINSLDSRKADLNGDVEARHAADWRRDSDWRRDSDWRRDSDWRRDSD
- glycan array binding signal (z-score): -0.157
